# From the supplement of paper PMC8728848
# The other results are listed elsewhere or left out.
# Legend:
# Assay in all cases: glycan array binding signal (z-score within array); higher = stronger binding
# Conditions in all cases: glycan notation: IUPAC condensed, linker removed
# [1] = biological target: Gal(b1-4)GlcNAc(b1-3)Gal(b1-4)GlcNAc(b1-2)Man(a1-3)[Gal(b1-4)GlcNAc(b1-3)Gal(b1-4)GlcNAc(b1-2)Man(a1-6)]Man(b1-4)GlcNAc(b1-4)[Fuc(a1-6)]GlcNAc
# Outline: (§1)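 Glycan array data came from 3228 arrays in the Consortium for Functional Glycomics database, and only arrays with an available protein sequence were kept. Glycan names were put into IUPAC-condensed notation, and columns mapping to the same glycan were averaged. The binding signal is a within-array Z-score, averaged across arrays of one protein sequence run at different concentrations or buffers and across linkers. A negative Z-score can be read as non-binding.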
# [2] = biological target: Gal(b1-4)GlcNAc(b1-3)Gal(b1-4)GlcNAc(b1-2)[Gal(b1-4)GlcNAc(b1-3)Gal(b1-4)GlcNAc(b1-6)]Man(a1-6)[Gal(b1-4)GlcNAc(b1-3)Gal(b1-4)GlcNAc(b1-2)Man(a1-3)]Man(b1-4)GlcNAc(b1-4)GlcNAc
# Outline: as §1
# [3] = biological target: Gal(b1-4)GlcNAc(b1-3)Gal(b1-4)GlcNAc(b1-2)[Gal(b1-4)GlcNAc(b1-3)Gal(b1-4)GlcNAc(b1-6)]Man(a1-6)[Gal(b1-4)GlcNAc(b1-3)Gal(b1-4)GlcNAc(b1-2)Man(a1-3)]Man(b1-4)GlcNAc(b1-4)[Fuc(a1-6)]GlcNAc
# Outline: as §1
# [4] = biological target: Gal(b1-4)GlcNAc(b1-3)Gal(b1-4)GlcNAc(b1-3)Gal(b1-4)GlcNAc
# Outline: as §1
# [5] = biological target: Gal(b1-4)GlcNAc(b1-3)Gal(b1-4)GlcNAc(b1-3)Gal(b1-4)GlcNAc(b1-2)Man(a1-3)[Gal(b1-4)GlcNAc(b1-3)Gal(b1-4)GlcNAc(b1-3)Gal(b1-4)GlcNAc(b1-2)Man(a1-6)]Man(b1-4)GlcNAc(b1-4)GlcNAc
# Outline: as §1
# [6] = biological target: Gal(b1-4)GlcNAc(b1-3)Gal(b1-4)GlcNAc(b1-3)Gal(b1-4)GlcNAc(b1-2)Man(a1-3)[Gal(b1-4)GlcNAc(b1-3)Gal(b1-4)GlcNAc(b1-3)Gal(b1-4)GlcNAc(b1-2)Man(a1-6)]Man(b1-4)GlcNAc(b1-4)[Fuc(a1-6)]GlcNAc
# Outline: as §1
# [7] = biological target: Gal(b1-4)GlcNAc(b1-3)Gal(b1-4)GlcNAc(b1-3)Gal(b1-4)GlcNAc(b1-2)[Gal(b1-4)GlcNAc(b1-3)Gal(b1-4)GlcNAc(b1-3)Gal(b1-4)GlcNAc(b1-6)]Man(a1-6)[Gal(b1-4)GlcNAc(b1-3)Gal(b1-4)GlcNAc(b1-3)Gal(b1-4)GlcNAc(b1-2)Man(a1-3)]Man(b1-4)GlcNAc(b1-4)[Fuc(a1-6)]GlcNAc
# Outline: as §1
# [8] = biological target: Gal(b1-4)GlcNAc(b1-3)Gal(b1-4)GlcNAc(b1-3)Gal(b1-4)GlcNAc(b1-3)Gal(b1-4)GlcNAc(b1-2)Man(a1-3)[Gal(b1-4)GlcNAc(b1-3)Gal(b1-4)GlcNAc(b1-3)Gal(b1-4)GlcNAc(b1-3)Gal(b1-4)GlcNAc(b1-2)Man(a1-6)]Man(b1-4)GlcNAc(b1-4)GlcNAc
# Outline: as §1
# [9] = biological target: Gal(b1-4)GlcNAc(b1-3)Gal(b1-4)GlcNAc(b1-3)Gal(b1-4)GlcNAc(b1-3)Gal(b1-4)GlcNAc(b1-2)Man(a1-3)[Gal(b1-4)GlcNAc(b1-3)Gal(b1-4)GlcNAc(b1-3)Gal(b1-4)GlcNAc(b1-3)Gal(b1-4)GlcNAc(b1-2)Man(a1-6)]Man(b1-4)GlcNAc(b1-4)[Fuc(a1-6)]GlcNAc
# Outline: as §1
# [10] = biological target: Gal(b1-4)GlcNAc(b1-3)Gal(b1-4)GlcNAc(b1-3)Gal(b1-4)GlcNAc(b1-3)Gal(b1-4)GlcNAc(b1-2)[Gal(b1-4)GlcNAc(b1-3)Gal(b1-4)GlcNAc(b1-3)Gal(b1-4)GlcNAc(b1-3)Gal(b1-4)GlcNAc(b1-6)]Man(a1-6)[Gal(b1-4)GlcNAc(b1-3)Gal(b1-4)GlcNAc(b1-3)Gal(b1-4)GlcNAc(b1-3)Gal(b1-4)GlcNAc(b1-2)Man(a1-3)]Man(b1-4)GlcNAc(b1-4)[Fuc(a1-6)]GlcNAc
# Outline: as §1
# [11] = biological target: Gal(b1-4)GlcNAc(b1-3)Gal(b1-4)GlcNAc(b1-3)Gal(b1-4)GlcNAc(b1-3)Gal(b1-4)GlcNAc(b1-3)Gal(b1-4)GlcNAc(b1-2)Man(a1-3)[Gal(b1-4)GlcNAc(b1-3)Gal(b1-4)GlcNAc(b1-3)Gal(b1-4)GlcNAc(b1-3)Gal(b1-4)GlcNAc(b1-3)Gal(b1-4)GlcNAc(b1-2)Man(a1-6)]Man(b1-4)GlcNAc(b1-4)GlcNAc
# Outline: as §1
# [12] = biological target: Gal(b1-4)GlcNAc(b1-3)Gal(b1-4)GlcNAc(b1-3)Gal(b1-4)GlcNAc(b1-3)Gal(b1-4)GlcNAc(b1-3)Gal(b1-4)GlcNAc(b1-2)Man(a1-3)[Gal(b1-4)GlcNAc(b1-3)Gal(b1-4)GlcNAc(b1-3)Gal(b1-4)GlcNAc(b1-3)Gal(b1-4)GlcNAc(b1-3)Gal(b1-4)GlcNAc(b1-2)Man(a1-6)]Man(b1-4)GlcNAc(b1-4)[Fuc(a1-6)]GlcNAc
# Outline: as §1
# [13] = biological target: Gal(b1-4)GlcNAc(b1-3)Gal(b1-4)GlcNAc(b1-3)Gal(b1-4)GlcNAc(b1-3)Gal(b1-4)GlcNAc(b1-3)Gal(b1-4)GlcNAc(b1-2)[Gal(b1-4)GlcNAc(b1-3)Gal(b1-4)GlcNAc(b1-3)Gal(b1-4)GlcNAc(b1-3)Gal(b1-4)GlcNAc(b1-3)Gal(b1-4)GlcNAc(b1-6)]Man(a1-6)[Gal(b1-4)GlcNAc(b1-3)Gal(b1-4)GlcNAc(b1-3)Gal(b1-4)GlcNAc(b1-3)Gal(b1-4)GlcNAc(b1-3)Gal(b1-4)GlcNAc(b1-2)Man(a1-3)]Man(b1-4)GlcNAc(b1-4)[Fuc(a1-6)]GlcNAc
# Outline: as §1
# [14] = biological target: Gal(b1-4)GlcNAc(b1-3)Gal(b1-4)GlcNAc(b1-3)Gal(b1-4)GlcNAc(b1-3)Gal(b1-4)GlcNAc(b1-3)Gal(b1-4)GlcNAc(b1-3)Gal(b1-4)GlcNAc(b1-2)Man(a1-3)[Gal(b1-4)GlcNAc(b1-3)Gal(b1-4)GlcNAc(b1-3)Gal(b1-4)GlcNAc(b1-3)Gal(b1-4)GlcNAc(b1-3)Gal(b1-4)GlcNAc(b1-3)Gal(b1-4)GlcNAc(b1-2)Man(a1-6)]Man(b1-4)GlcNAc(b1-4)GlcNAc
# Outline: as §1
# [15] = biological target: Gal(b1-4)GlcNAc(b1-3)Gal(b1-4)GlcNAc(b1-3)GalNAc
# Outline: as §1
# [16] = biological target: Gal(b1-4)GlcNAc(b1-3)Gal(b1-4)GlcNAc(b1-3)[Gal(b1-4)GlcNAc(b1-3)Gal(b1-4)GlcNAc(b1-6)]GalNAc
# Outline: as §1
# [17] = biological target: Gal(b1-4)GlcNAc(b1-3)Gal(b1-4)GlcNAc(b1-6)[Gal(b1-3)]GalNAc
# Outline: as §1
# [18] = biological target: Gal(b1-4)GlcNAc(b1-3)Gal(b1-4)[Fuc(a1-3)]GlcNAc(b1-3)Gal(b1-4)[Fuc(a1-3)]GlcNAc
# Outline: as §1
# [19] = biological target: Gal(b1-4)GlcNAc(b1-3)GalNAc
# Outline: as §1
# [20] = biological target: Gal(b1-4)GlcNAc(b1-3)[Fuc(a1-3)GlcNAc(b1-6)]Gal(b1-4)Glc
# Outline: as §1
# [21] = biological target: Gal(b1-4)GlcNAc(b1-3)[Gal(b1-4)GlcNAc(b1-6)]Gal(b1-4)GlcNAc
# Outline: as §1
# [22] = biological target: Gal(b1-4)GlcNAc(b1-3)[GlcNAc(b1-6)]Gal(b1-4)GlcNAc
# Outline: as §1
# [23] = biological target: Gal(b1-4)GlcNAc(b1-6)Gal(b1-4)GlcNAc
# Outline: as §1
# [24] = biological target: Gal(b1-4)GlcNAc(b1-6)GalNAc
# Outline: as §1
# [25] = biological target: Gal(b1-4)GlcNAc(b1-6)[Gal(b1-3)]GalNAc
# Outline: as §1
# [26] = biological target: Gal(b1-4)GlcNAc(b1-6)[Gal(b1-4)GlcNAc(b1-3)]GalNAc
# Outline: as §1
# Gal(b1-4)GlcNAc6P = biological target: Gal(b1-4)GlcNAc6P
# Outline: as §1
# Gal(b1-6)Gal = biological target: Gal(b1-6)Gal
# Outline: as §1
# Gal3S(b1-3)GalNAc = biological target: Gal3S(b1-3)GalNAc
# Outline: as §1
# Gal3S(b1-3)GlcNAc = biological target: Gal3S(b1-3)GlcNAc
# Outline: as §1
# [27] = biological target: Gal3S(b1-3)[Fuc(a1-4)]GlcNAc
# Outline: as §1
# Gal3S(b1-4)Glc = biological target: Gal3S(b1-4)Glc
# Outline: as §1
# Gal3S(b1-4)Glc6S = biological target: Gal3S(b1-4)Glc6S
# Outline: as §1
# Gal3S(b1-4)GlcNAc = biological target: Gal3S(b1-4)GlcNAc
# Outline: as §1
# [28] = biological target: Gal3S(b1-4)[Fuc(a1-3)]Glc6S
# Outline: as §1
# [29] = biological target: Gal3S(b1-4)[Fuc(a1-3)]GlcNAc
# Outline: as §1
# [30] = biological target: Gal3S(b1-4)[Fuc(a1-3)]GlcNAc6S
# Outline: as §1
binder,measurement,setting,value
"AT5G24760(45) (Arabidopsis thaliana), Q8LEB2 (protein) MSASSSSFEQPQVITCNAAVAWRAGEPLVMEEVEVSPPQPLEIRIKVVCTSLCRSDLSAWESQSLLPRIFGHEAAGIVESIGEGVTEFEKGDHVLAVFTGECGSCRHCISGKSNMCQVLGMERKGLMHSDQKTRFSIKGKPVYHYCAVSSFSEYTVVHSGCAVKVDPLAPLHKICLLSCGVAAGLGAAWNVADVQKGSSVVIFGLGTVGLSVAQGAKLRGAAQILGVDINPAKAEQAKTFGVTDFINSNDLSEPIPQVIKRMTGGGADFSFECVGDTGIATTALQSCSDGWGMTVTLGVPKAKPEVSAHYGLFLSGKSLKGTLFGGWKPKSDLPSLIDKYMNKEIMIDEFITHNLSFDEINKAFVLMREGKCLRCVLHMPK",glycan array binding signal (z-score),[1],0.309
same,glycan array binding signal (z-score),[2],-0.397
same,glycan array binding signal (z-score),[3],-0.405
same,glycan array binding signal (z-score),[4],-0.696
same,glycan array binding signal (z-score),[5],-0.272
same,glycan array binding signal (z-score),[6],0.03
same,glycan array binding signal (z-score),[7],1.46
same,glycan array binding signal (z-score),[8],-0.516
same,glycan array binding signal (z-score),[9],-0.686
same,glycan array binding signal (z-score),[10],-0.779
same,glycan array binding signal (z-score),[11],-0.85
same,glycan array binding signal (z-score),[12],-0.823
same,glycan array binding signal (z-score),[13],-0.889
same,glycan array binding signal (z-score),[14],-0.887
same,glycan array binding signal (z-score),[15],-0.539
same,glycan array binding signal (z-score),[16],-0.992
same,glycan array binding signal (z-score),[17],-0.013
same,glycan array binding signal (z-score),[18],-0.804
same,glycan array binding signal (z-score),[19],-0.558
same,glycan array binding signal (z-score),[20],-0.055
same,glycan array binding signal (z-score),[21],-0.516
same,glycan array binding signal (z-score),[22],-0.001
same,glycan array binding signal (z-score),[23],0.709
same,glycan array binding signal (z-score),[24],1.23
same,glycan array binding signal (z-score),[25],-0.485
same,glycan array binding signal (z-score),[26],-0.772
same,glycan array binding signal (z-score),Gal(b1-4)GlcNAc6P,-0.892
same,glycan array binding signal (z-score),Gal(b1-6)Gal,0.729
same,glycan array binding signal (z-score),Gal3S(b1-3)GalNAc,-0.241
same,glycan array binding signal (z-score),Gal3S(b1-3)GlcNAc,0.716
same,glycan array binding signal (z-score),[27],0.437
same,glycan array binding signal (z-score),Gal3S(b1-4)Glc,-1.04
same,glycan array binding signal (z-score),Gal3S(b1-4)Glc6S,-0.368
same,glycan array binding signal (z-score),Gal3S(b1-4)GlcNAc,-0.185
same,glycan array binding signal (z-score),[28],2.68
same,glycan array binding signal (z-score),[29],-0.085
same,glycan array binding signal (z-score),[30],0.449

# A second format for part of the listing above.
binder	measurement	setting	value
AT5G24760(45) (Arabidopsis thaliana), Q8LEB2 (protein) MSASSSSFEQPQVITCNAAVAWRAGEPLVMEEVEVSPPQPLEIRIKVVCTSLCRSDLSAWESQSLLPRIFGHEAAGIVESIGEGVTEFEKGDHVLAVFTGECGSCRHCISGKSNMCQVLGMERKGLMHSDQKTRFSIKGKPVYHYCAVSSFSEYTVVHSGCAVKVDPLAPLHKICLLSCGVAAGLGAAWNVADVQKGSSVVIFGLGTVGLSVAQGAKLRGAAQILGVDINPAKAEQAKTFGVTDFINSNDLSEPIPQVIKRMTGGGADFSFECVGDTGIATTALQSCSDGWGMTVTLGVPKAKPEVSAHYGLFLSGKSLKGTLFGGWKPKSDLPSLIDKYMNKEIMIDEFITHNLSFDEINKAFVLMREGKCLRCVLHMPK	glycan array binding signal (z-score)	[2]	-0.397
same	glycan array binding signal (z-score)	[28]	2.68
